ChEMBL document CHEMBL1687827, “Profiling the Aspergillus fumigatus proteome in response to caspofungin” (2011)
This continues a long series; more values of the same kind are listed elsewhere.

Legend:
Format in all cases: functional
[1] = test system: Aspergillus fumigatus; assay: Induction of change in Mn superoxide dismutase MnSOD protein level in iTRAQ-116 labelled secreted fraction of drug-susceptible Aspergillus fumigatus KU80 delta-akuB at 0.12 ug/ml after 48 hrs in YPD medium by MS (MS/MS) analysis relative to control
[2] = test system: Aspergillus fumigatus; assay: Induction of change in extracellular cell wall glucanase Crf1/allergen Asp F9 protein level in iTRAQ-116 labelled secreted fraction of drug-resistant Aspergillus fumigatus EMFR-S678P at 0.12 ug/ml after 48 hrs in YPD medium by MS (MS/MS) analysis relative to control
[3] = test system: Aspergillus fumigatus; assay: Induction of change in ubiquitin (UbiC), putative protein level in iTRAQ114 labelled cell wall fraction of drug-susceptible Aspergillus fumigatus KU80 delta-akuB at 0.12 ug/ml after 24 hrs in YPD medium by MS (MS/MS) analysis relative to control
[4] = test system: Aspergillus fumigatus; assay: Induction of change in antigenic mitochondrial protein HSP60, putative protein level in iTRAQ114 labelled secreted fraction of drug-susceptible Aspergillus fumigatus KU80 delta-akuB at 0.12 ug/ml after 24 hrs in YPD medium by MS (MS/MS) analysis relative to control
[5] = test system: Aspergillus fumigatus; assay: Induction of change in conserved hypothetical gene locus AFUA_5G07590 expression in drug-susceptible Aspergillus fumigatus KU80 delta-akuB at 0.12 ug/ml after 48 hrs in YPD medium by microarray analysis relative to control
[6] = test system: Aspergillus fumigatus; assay: Induction of change in ATP citrate lyase subunit (Acl), putative protein level in iTRAQ114 labelled secreted fraction of drug-resistant Aspergillus fumigatus EMFR-S678P at 0.12 ug/ml after 24 hrs in YPD medium by MS (MS/MS) analysis relative to control
[7] = test system: Aspergillus fumigatus; assay: Induction of change in Ribosomal L15 protein level in iTRAQ114 labelled cell wall fraction of drug-susceptible Aspergillus fumigatus KU80 delta-akuB at 0.12 ug/ml after 24 hrs in YPD medium by MS (MS/MS) analysis relative to control
[8] = test system: Aspergillus fumigatus; assay: Induction of change in Mn superoxide dismutase MnSOD protein level in iTRAQ-116 labelled secreted fraction of drug-resistant Aspergillus fumigatus EMFR-S678P at 0.12 ug/ml after 48 hrs in YPD medium by MS (MS/MS) analysis relative to control
[9] = test system: Aspergillus fumigatus; assay: Induction of change in Ribosomal protein L31e protein level in iTRAQ114 labelled cell wall fraction of drug-susceptible Aspergillus fumigatus KU80 delta-akuB at 0.12 ug/ml after 24 hrs in YPD medium by MS (MS/MS) analysis relative to control
[10] = test system: Aspergillus fumigatus; assay: Induction of change in 40S ribosomal protein S6 protein level in iTRAQ114 labelled cell wall fraction of drug-resistant Aspergillus fumigatus EMFR-S678P at 0.12 ug/ml after 24 hrs in YPD medium by MS (MS/MS) analysis relative to control
[11] = test system: Aspergillus fumigatus; assay: Induction of change in ribosomal protein S23 gene expression in drug-susceptible Aspergillus fumigatus KU80 delta-akuB at 0.12 ug/ml after 24 hrs in YPD medium by microarray analysis relative to control
[12] = test system: Aspergillus fumigatus; assay: Induction of change in Iron-sulfur cluster assembly accessory protein subfamily, putative gene expression in drug-susceptible Aspergillus fumigatus KU80 delta-akuB at 0.12 ug/ml after 48 hrs in YPD medium by microarray analysis relative to control
[13] = test system: Aspergillus fumigatus; assay: Induction of change in cell wall glucanase, putative gene expression in drug-susceptible Aspergillus fumigatus KU80 delta-akuB at 0.12 ug/ml after 48 hrs in YPD medium by microarray analysis relative to control
[14] = test system: Aspergillus fumigatus; assay: Induction of change in bifunctional catalase-peroxidase Cat2 gene expression in drug-susceptible Aspergillus fumigatus KU80 delta-akuB at 0.12 ug/ml after 48 hrs in YPD medium by microarray analysis relative to control
[15] = test system: Aspergillus fumigatus; assay: Induction of change in 60S ribosomal protein L1 protein level in iTRAQ114 labelled cell wall fraction of drug-susceptible Aspergillus fumigatus KU80 delta-akuB at 0.12 ug/ml after 24 hrs in YPD medium by MS (MS/MS) analysis relative to control
[16] = test system: Aspergillus fumigatus; assay: Induction of change in eukaryotic translation elongation factor 1 subunit Eef1-beta, putative protein level in iTRAQ-116 labelled secreted fraction of drug-susceptible Aspergillus fumigatus KU80 delta-akuB at 0.12 ug/ml after 48 hrs in YPD medium by MS (MS/MS) analysis relative to control
[17] = test system: Aspergillus fumigatus; assay: Induction of change in secreted dipeptidyl peptidase DppV protein level in iTRAQ-118 labelled cell wall fraction of drug-susceptible Aspergillus fumigatus KU80 delta-akuB at 0.12 ug/ml after 24 hrs in YPD medium by MS (MS/MS) analysis relative to control
[18] = test system: Aspergillus fumigatus; assay: Induction of change in cytosolic small ribosomal subunit S4, putative protein level in iTRAQ114 labelled secreted fraction of drug-susceptible Aspergillus fumigatus KU80 delta-akuB at 0.12 ug/ml after 24 hrs in YPD medium by MS (MS/MS) analysis relative to control
[19] = test system: Aspergillus fumigatus; assay: Induction of change in antigenic mitochondrial protein HSP60, putative protein level in iTRAQ-116 labelled secreted fraction of drug-susceptible Aspergillus fumigatus KU80 delta-akuB at 0.12 ug/ml after 48 hrs in YPD medium by MS (MS/MS) analysis relative to control
[20] = test system: Aspergillus fumigatus; assay: Induction of change in citrate synthase, eukaryotic gene expression in drug-susceptible Aspergillus fumigatus KU80 delta-akuB at 0.12 ug/ml after 48 hrs in YPD medium by microarray analysis relative to control
[21] = test system: Aspergillus fumigatus; assay: Induction of change in integral membrane gene expression in drug-susceptible Aspergillus fumigatus KU80 delta-akuB at 0.12 ug/ml after 24 hrs in YPD medium by microarray analysis relative to control
[22] = test system: Aspergillus fumigatus; assay: Induction of change in ribosomal protein S23 protein level in iTRAQ114 labelled cell wall fraction of drug-susceptible Aspergillus fumigatus KU80 delta-akuB at 0.12 ug/ml after 24 hrs in YPD medium by MS (MS/MS) analysis relative to control
[23] = test system: Aspergillus fumigatus; assay: Induction of change in extracellular cell wall glucanase Crf1/allergen Asp F9 protein level in iTRAQ-116 labelled secreted fraction of drug-susceptible Aspergillus fumigatus KU80 delta-akuB at 0.12 ug/ml after 48 hrs in YPD medium by MS (MS/MS) analysis relative to control
[24] = test system: Aspergillus fumigatus; assay: Induction of change in BYS1 domain protein, putative protein level in iTRAQ-116 labelled cell wall fraction of drug-resistant Aspergillus fumigatus EMFR-S678P at 0.12 ug/ml after 48 hrs in YPD medium by MS (MS/MS) analysis relative to control
[25] = test system: Aspergillus fumigatus; assay: Induction of change in 60s ribosomal protein yl17-b protein level in iTRAQ114 labelled cell wall fraction of drug-susceptible Aspergillus fumigatus KU80 delta-akuB at 0.12 ug/ml after 24 hrs in YPD medium by MS (MS/MS) analysis relative to control

CC[C@H](C)C[C@H](C)CCCCCCCCC(=O)N[C@H]1C[C@@H](O)[C@@H](NCCN)NC(=O)[C@@H]2[C@@H](O)CCN2C(=O)[C@H]([C@H](O)CCN)NC(=O)[C@H]([C@H](O)[C@@H](O)c2ccc(O)cc2)NC(=O)[C@@H]2C[C@@H](O)CN2C(=O)[C@H]([C@@H](C)O)NC1=O [CASPOFUNGIN]
fold change (FC) [1]: -3.5
fold change (FC) [2]: -1.07
fold change (FC) [3]: -1.9
fold change (FC) [4]: 2.6
fold change (FC) [5]: -2.7
fold change (FC) [6]: -1.15
fold change (FC) [7]: 1.7
fold change (FC) [8]: -1.52
fold change (FC) [9]: 1.1
fold change (FC) [10]: -1.07
fold change (FC) [11]: 4
fold change (FC) [12]: 5.7
fold change (FC) [13]: -2.7
fold change (FC) [14]: -4.1
fold change (FC) [15]: 1.9
fold change (FC) [16]: -2.5
fold change (FC) [17]: -2.3
fold change (FC) [18]: 1.2
fold change (FC) [19]: -2.6
fold change (FC) [20]: -3.4
fold change (FC) [21]: -4.6
fold change (FC) [22]: 1.9
fold change (FC) [23]: -3.7
fold change (FC) [24]: 1.23
fold change (FC) [25]: 1.7
